Laboratory results reported in paper doi:10.1101/386631.

Protein sequences, listed by entry. Tags and fused reporters are not part of them. Residues count along the entry.
UniProt P29323, residues 19-1055: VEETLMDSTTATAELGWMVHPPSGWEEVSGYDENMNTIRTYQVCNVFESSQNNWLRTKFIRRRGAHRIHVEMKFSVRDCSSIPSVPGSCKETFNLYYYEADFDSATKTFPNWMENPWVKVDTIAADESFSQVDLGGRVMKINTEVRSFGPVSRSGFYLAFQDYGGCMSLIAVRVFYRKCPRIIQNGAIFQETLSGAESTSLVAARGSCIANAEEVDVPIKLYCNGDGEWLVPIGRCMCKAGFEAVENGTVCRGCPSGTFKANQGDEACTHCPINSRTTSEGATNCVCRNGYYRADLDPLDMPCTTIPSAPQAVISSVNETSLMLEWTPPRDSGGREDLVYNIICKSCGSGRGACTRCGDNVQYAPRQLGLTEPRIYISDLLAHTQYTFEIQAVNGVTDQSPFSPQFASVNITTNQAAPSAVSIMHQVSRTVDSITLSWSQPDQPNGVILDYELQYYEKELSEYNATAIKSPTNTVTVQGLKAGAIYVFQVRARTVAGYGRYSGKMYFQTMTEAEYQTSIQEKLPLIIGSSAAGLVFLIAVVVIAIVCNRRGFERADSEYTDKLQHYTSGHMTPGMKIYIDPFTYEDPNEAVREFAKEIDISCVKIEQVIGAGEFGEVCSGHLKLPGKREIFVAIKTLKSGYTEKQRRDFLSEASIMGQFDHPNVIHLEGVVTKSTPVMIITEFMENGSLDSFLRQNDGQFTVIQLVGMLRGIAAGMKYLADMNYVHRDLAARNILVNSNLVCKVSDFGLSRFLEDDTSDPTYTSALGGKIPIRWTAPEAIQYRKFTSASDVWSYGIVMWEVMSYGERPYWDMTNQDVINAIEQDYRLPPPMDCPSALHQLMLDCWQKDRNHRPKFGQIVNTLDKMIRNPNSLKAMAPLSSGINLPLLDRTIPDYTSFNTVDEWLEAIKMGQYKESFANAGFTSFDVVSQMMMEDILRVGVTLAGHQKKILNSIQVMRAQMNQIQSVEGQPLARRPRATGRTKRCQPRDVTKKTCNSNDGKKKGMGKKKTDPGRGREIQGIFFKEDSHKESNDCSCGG
UniProt Q96T51: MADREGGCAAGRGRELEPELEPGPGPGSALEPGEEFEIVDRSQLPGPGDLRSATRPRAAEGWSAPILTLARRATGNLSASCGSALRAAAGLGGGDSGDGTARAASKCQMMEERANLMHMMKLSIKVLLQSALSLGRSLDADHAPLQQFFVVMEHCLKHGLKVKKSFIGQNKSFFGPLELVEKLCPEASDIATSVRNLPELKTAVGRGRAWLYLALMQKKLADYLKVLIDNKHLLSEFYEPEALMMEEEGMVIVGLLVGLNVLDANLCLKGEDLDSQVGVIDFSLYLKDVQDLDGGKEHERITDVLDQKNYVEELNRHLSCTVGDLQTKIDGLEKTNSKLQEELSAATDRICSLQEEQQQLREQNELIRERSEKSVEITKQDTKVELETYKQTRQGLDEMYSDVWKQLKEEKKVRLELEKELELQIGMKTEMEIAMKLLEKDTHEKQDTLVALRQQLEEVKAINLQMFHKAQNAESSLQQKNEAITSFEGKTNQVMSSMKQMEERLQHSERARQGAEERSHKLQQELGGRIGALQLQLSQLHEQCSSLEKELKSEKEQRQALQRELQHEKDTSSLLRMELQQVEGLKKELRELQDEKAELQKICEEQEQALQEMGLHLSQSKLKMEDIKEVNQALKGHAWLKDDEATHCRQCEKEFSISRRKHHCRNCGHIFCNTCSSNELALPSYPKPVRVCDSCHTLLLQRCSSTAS
UniProt Q9H3S7: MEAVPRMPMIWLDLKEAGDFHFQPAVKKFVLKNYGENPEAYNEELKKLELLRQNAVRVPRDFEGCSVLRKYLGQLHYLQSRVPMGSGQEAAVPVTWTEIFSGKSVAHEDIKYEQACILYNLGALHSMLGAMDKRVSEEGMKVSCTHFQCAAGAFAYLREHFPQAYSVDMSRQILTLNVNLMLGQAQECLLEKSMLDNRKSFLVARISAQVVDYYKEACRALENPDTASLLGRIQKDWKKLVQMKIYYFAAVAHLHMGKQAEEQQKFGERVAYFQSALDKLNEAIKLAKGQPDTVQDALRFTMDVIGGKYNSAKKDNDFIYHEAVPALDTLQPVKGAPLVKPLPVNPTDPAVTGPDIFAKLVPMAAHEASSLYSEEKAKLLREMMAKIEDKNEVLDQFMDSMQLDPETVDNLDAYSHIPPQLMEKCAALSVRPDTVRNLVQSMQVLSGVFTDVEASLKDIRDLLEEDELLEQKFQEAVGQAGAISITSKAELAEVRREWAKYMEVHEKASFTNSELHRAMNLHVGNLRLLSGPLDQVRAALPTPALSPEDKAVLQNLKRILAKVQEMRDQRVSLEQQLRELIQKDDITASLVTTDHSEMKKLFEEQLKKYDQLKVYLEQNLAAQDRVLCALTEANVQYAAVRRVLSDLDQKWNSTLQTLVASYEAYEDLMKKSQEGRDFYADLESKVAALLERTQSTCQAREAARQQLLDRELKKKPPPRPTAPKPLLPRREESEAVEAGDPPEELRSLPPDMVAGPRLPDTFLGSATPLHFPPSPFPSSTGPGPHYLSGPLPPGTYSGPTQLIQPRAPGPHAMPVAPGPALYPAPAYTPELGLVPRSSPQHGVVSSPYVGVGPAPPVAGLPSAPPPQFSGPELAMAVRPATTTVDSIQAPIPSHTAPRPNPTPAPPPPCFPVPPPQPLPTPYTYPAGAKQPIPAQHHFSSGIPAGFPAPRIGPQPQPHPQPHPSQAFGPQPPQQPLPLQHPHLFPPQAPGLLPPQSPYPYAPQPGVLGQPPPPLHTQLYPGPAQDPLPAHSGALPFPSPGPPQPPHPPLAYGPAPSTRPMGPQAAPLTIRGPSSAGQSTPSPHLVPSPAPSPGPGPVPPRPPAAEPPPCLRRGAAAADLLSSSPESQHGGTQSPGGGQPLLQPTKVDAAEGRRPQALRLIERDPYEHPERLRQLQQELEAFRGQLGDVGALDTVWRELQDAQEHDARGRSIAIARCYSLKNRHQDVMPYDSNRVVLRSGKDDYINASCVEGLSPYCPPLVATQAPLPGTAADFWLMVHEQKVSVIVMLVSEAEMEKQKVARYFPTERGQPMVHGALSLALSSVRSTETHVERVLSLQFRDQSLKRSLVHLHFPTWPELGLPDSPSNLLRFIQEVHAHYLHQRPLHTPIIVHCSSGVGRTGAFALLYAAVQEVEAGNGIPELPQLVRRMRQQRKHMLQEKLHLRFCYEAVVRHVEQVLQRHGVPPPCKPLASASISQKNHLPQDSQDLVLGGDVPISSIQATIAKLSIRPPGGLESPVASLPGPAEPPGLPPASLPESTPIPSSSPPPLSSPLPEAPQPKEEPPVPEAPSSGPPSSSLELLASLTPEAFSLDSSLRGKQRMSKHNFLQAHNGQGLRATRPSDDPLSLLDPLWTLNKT
UniProt P46108: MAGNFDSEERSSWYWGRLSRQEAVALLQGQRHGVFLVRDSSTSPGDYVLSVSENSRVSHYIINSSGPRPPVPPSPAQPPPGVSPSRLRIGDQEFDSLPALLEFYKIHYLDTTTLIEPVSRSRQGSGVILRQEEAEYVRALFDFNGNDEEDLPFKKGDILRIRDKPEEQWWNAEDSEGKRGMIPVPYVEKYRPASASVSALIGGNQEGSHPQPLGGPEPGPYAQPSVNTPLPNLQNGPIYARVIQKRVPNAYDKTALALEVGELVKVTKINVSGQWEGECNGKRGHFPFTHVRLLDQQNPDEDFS
UniProt P27986: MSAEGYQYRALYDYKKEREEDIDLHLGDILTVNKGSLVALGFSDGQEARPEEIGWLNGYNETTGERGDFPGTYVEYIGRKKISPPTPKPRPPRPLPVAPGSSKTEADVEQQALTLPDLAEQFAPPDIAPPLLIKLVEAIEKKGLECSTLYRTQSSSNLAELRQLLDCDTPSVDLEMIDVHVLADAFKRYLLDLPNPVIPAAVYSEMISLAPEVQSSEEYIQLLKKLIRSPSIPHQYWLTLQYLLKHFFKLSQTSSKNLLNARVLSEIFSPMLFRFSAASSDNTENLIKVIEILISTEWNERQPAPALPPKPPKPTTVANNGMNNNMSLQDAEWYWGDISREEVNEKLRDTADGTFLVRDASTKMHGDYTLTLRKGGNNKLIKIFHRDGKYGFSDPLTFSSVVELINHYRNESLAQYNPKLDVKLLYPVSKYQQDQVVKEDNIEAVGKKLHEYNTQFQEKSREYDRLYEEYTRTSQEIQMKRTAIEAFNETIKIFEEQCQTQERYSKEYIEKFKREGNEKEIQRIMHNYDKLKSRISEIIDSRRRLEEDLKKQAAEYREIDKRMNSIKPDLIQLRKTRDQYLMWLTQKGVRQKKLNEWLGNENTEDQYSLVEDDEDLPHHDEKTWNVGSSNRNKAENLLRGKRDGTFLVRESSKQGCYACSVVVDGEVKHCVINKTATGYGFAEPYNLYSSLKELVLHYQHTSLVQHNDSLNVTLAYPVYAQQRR
UniProt O43639: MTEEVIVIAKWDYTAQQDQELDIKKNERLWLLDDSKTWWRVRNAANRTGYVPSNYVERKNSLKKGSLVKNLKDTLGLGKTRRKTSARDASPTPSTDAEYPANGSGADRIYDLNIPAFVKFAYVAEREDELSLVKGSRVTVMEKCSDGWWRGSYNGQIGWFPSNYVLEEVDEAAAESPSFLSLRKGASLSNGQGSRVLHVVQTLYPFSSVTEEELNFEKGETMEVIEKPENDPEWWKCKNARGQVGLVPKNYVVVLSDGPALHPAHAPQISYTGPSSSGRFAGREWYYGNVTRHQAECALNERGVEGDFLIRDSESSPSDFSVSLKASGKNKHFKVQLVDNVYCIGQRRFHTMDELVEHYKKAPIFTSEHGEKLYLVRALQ

Molecular target: EphB2-BirA*-FLAG (UniProt P29323)
Assay: proximity labelling

Substance	binding
RUN and FYVE domain-containing protein 1 (RUFY1) (from UniProt Q96T51 1-708)	binds
HD-PTP (endogenous, HEK293) (from UniProt Q9H3S7 1-1636)	binds

The remaining lines, values ahead:

binding	Substance
binds	CRK (from UniProt P46108 1-304)
binds	Pik3r1 (from UniProt P27986 1-724)
binds	Nck adaptor protein NCK2 (from UniProt O43639 1-380)

These are yes or no findings as the source states them, for the method shown. In cells and extracts the contact can be indirect. These calls come from enrichment with a bait or labelling near it, and not all partners need be listed.
